Laboratory results taken from PMC9938216.

Protein sequences, listed by entry. Tags and fused reporters are not part of them. Residues count along the entry.
UniProt Q56A07, residues 30-215: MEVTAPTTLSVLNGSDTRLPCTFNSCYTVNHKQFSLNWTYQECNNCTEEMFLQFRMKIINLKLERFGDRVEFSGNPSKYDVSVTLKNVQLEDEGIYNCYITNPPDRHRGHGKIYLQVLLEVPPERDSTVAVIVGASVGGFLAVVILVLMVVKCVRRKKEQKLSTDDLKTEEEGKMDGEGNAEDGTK
UniProt Q8CC27: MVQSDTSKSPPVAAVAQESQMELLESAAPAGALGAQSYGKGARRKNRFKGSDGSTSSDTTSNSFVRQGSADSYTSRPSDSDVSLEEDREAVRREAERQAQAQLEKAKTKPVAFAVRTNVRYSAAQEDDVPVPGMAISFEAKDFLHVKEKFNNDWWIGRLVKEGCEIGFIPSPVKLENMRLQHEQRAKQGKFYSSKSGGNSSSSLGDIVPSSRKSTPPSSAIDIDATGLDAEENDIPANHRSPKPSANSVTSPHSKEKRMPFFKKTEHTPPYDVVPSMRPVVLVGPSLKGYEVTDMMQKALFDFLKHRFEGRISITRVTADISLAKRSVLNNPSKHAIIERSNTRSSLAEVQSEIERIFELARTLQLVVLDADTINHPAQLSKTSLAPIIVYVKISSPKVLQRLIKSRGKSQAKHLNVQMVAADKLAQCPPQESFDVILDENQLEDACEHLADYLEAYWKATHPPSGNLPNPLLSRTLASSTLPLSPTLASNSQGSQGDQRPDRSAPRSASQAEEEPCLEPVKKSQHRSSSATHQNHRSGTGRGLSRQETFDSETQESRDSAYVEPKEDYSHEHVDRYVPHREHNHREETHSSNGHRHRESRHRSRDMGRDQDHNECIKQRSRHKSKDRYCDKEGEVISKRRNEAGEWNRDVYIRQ
UniProt P46096: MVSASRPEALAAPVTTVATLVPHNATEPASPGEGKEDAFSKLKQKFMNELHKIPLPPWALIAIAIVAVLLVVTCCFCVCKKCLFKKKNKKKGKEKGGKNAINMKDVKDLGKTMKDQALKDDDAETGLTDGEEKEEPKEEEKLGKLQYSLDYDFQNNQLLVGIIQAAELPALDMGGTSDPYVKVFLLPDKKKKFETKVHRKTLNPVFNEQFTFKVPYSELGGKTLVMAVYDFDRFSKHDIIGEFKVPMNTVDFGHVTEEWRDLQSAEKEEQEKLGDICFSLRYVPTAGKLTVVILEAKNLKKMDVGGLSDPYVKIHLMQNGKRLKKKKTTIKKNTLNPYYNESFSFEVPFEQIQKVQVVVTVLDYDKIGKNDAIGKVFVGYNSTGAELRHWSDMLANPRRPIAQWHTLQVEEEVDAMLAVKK
UniProt P97952, residues 19-218: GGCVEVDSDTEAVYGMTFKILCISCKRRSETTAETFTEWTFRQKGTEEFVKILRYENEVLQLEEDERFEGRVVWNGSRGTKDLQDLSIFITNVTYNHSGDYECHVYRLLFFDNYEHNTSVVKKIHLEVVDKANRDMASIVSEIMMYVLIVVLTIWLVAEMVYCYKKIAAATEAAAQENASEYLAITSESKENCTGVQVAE
UniProt Q8R3Z5: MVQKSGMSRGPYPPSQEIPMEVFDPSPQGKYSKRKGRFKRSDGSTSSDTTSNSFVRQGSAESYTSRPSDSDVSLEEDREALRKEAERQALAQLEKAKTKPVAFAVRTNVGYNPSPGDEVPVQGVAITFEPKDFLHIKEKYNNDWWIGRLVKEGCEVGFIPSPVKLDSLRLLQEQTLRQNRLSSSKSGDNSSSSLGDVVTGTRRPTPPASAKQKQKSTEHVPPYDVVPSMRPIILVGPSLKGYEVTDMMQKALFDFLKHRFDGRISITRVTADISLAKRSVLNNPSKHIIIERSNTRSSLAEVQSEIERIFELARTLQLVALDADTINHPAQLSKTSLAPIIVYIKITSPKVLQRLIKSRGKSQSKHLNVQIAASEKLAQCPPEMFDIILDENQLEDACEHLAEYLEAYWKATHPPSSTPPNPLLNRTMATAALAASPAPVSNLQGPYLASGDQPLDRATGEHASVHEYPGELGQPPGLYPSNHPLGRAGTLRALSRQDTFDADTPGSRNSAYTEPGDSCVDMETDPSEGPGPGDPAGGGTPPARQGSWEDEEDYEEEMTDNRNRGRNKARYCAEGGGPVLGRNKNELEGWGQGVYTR

T1: PRRT2 (mouse (endogenous in mouse neocortex)) (UniProt E9PUL5)
T1 sequence: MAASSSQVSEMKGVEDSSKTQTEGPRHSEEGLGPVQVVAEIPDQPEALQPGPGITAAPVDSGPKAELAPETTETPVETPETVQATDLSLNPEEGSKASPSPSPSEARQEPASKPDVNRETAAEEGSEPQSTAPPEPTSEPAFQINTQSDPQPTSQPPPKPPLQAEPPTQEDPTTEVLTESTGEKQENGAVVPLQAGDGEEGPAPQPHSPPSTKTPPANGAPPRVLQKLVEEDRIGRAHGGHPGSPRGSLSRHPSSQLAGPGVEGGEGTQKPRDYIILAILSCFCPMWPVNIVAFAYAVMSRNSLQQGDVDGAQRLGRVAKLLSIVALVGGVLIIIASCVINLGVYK


Biological target: T1, PRRT2 (mouse (endogenous in mouse neocortex))
Test: affinity purification with mass spectrometry; PRRT2 rabbit antibody crosslinked to Protein A/G beads, against non-specific rabbit IgG; washed (1 M KI) membrane fraction of mouse neocortex solubilised in 1% CHAPS, 100 mM NaCl, 20 mM HEPES pH 7.4, 5 mM EDTA; overnight at 4 °C; n = 3

Molecule | binding
SCN2B (from UniProt Q56A07 30-215) | binds
CACNB2 (from UniProt Q8CC27 1-655) | binds
SYT1 (from UniProt P46096 1-421) | binds
SCN1B (from UniProt P97952 19-218) | binds

More lines, now with the values ahead:

binding | Molecule
binds | CACNB1 (from UniProt Q8R3Z5 1-597)
binds | TARP-ϒ8 (protein, UniProt Q8VHW2 1-423) MESLKRWNEERGLWCEKGVQVLLTTIGAFSAFGLMTIAISTDYWLYTRALICNTTNLTAGDDGPPHRGGSGSSEKKDPGGLTHSGLWRICCLEGLKRGVCVKINHFPEDTDYDHDSAEYLLRVVRASSIFPILSAILLLLGGVCVAASRVYKSKRNIILGAGILFVAAGLSNIIGVIVYISANAGEPGPKRDEEKKNHYSYGWSFYFGGLSFILAEVIGVLAVNIYIERSREAHCQSRSDLLKAGGGAGGSGGSGPSAILRLPSYRFRYRRRSRSSSRGSSEASPSRDASPGGPGGPGFASTDISMYTLSRDPSKGSVAAGLASAGGGGSGAGVGAYGGAAGAAGGGGAGSERDRGSSAGFLTLHNAFPKEAASGVTVTVTGPPAAPAPAPAPPAPAAPAPGTLSKEAAASNTNTLNRKTTPV

These are yes or no findings as the source states them, for the method shown. Binding seen in cells or lysates may run through a third protein. A yes stands for co-enrichment or nearness to the bait. Other partners may have been found.
